Data published in patent publication US11571459B2, “Methods for treating cancer using PS-targeting antibodies with immuno-oncology agents” (ONCXERNA THERAPEUTICS, INC., priority 2017, dated 2023).

Tested on: total β2GPI
Assay: Assay for total β2GPI (capture and detection anti-β2GPI antibodies)
Format: binding, human
Details: for concentration read out in total β2GPI assay: β2GPI from human plasma; for Conc. (ng/mL) read out in Total β2GPI Assay: commercial capture and detection anti-β2GPI antibodies, nicked vs intact β2GPI samples

B1: β2GPI: plasmin-free (intact) β2GPI purified from human plasma or recombinant (protein)
chain: GRTCPKPDDLPFSTVVPLKTFYEPGEEITYSCKPGYVSRGGMRKFICPLTGLWPINTLKCTPRVCPFAGILENGAVRYTTFEYPNTISFSCNTGFYLNGADSAKCTEEGKWSPELPVCAPIICPPPSIPTFATLRVYKPSAGNNSLYRDTAVFECLPQHAMFGNDTITCTTHGNWTKLPECREVKCPFPSRPDNGFVNYPAKPTLYYKDKATFGCHDGYSLDGPEEIECTKLGNWSAMPSCKASCKVPVKKATVVYQGERVKIQEKFKNGMLHGDKVSFFCKNKEKKCSYTEDAQCIDGTIEVPKCFKEHSSLAFWKTDASDVKPC
- concentration read out in total β2GPI assay: approximately 141 ng/mL

B2: Recombinant Plasmin-free β2GPI (protein, UniProt P02749 20-345, looked up)
Beta-2-glycoprotein 1: B1 chain
modifications: recombinant, plasmin-free
- Conc. (ng/mL) read out in Total β2GPI Assay: 140.90 ng/mL

B3: plasmin-treated β2GPI: β2GPI treated with plasmin, majority nicked, does not bind PS (protein)
chain: B1 chain
- concentration read out in total β2GPI assay: 104 ng/mL

B4: Human Plasmin-free β2GPI (protein, UniProt P02749 20-345, looked up)
Beta-2-glycoprotein 1: B1 chain
modifications: plasmin-free
- Conc. (ng/mL) read out in Total β2GPI Assay: 140.90 ng/mL
